Experimental data reported in publication PMC9409403.
Results are given in words; binding and its absence hold for the method and conditions named. For some assays here: In cells and extracts the contact can be indirect. Some entries that bind do so weakly or less than the wild type. Where a sequence is shown, tags or fusion partners need not be part of it.

By UniProt entry, the sequences of proteins in these tests, tags left out. Residues count along the entry.
UniProt Q569L8: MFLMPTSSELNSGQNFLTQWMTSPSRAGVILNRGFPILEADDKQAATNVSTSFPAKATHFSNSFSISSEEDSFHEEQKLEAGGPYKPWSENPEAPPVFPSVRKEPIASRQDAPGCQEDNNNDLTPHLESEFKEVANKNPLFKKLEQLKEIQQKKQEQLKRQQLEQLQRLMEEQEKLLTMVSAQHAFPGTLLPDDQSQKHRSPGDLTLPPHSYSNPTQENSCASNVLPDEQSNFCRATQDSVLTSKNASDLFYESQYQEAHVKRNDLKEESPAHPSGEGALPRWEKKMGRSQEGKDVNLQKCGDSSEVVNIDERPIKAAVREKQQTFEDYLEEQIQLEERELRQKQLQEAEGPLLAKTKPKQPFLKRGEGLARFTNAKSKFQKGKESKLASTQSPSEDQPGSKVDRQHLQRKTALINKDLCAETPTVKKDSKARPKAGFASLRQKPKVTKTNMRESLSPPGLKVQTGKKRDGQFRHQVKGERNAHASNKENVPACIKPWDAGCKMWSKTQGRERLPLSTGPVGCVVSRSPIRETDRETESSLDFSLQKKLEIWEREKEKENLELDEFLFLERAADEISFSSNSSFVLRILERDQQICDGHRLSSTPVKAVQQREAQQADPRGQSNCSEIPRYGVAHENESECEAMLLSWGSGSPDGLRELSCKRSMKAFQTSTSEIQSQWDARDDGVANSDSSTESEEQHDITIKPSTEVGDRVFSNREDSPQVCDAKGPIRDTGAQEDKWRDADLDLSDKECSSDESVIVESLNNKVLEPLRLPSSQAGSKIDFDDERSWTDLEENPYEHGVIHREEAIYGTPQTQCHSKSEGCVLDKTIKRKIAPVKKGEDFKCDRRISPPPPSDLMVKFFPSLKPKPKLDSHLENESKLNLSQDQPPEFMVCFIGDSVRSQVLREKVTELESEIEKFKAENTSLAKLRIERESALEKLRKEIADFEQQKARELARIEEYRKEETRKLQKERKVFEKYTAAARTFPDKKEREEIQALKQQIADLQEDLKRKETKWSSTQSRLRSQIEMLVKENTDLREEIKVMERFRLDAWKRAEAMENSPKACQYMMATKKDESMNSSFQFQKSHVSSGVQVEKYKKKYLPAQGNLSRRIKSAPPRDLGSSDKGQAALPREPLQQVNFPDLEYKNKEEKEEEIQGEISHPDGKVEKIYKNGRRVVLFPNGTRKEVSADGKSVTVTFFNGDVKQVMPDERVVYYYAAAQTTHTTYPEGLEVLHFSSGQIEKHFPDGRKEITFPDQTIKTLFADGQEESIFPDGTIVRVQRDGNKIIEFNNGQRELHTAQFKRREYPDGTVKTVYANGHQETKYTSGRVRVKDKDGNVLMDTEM
UniProt Q9D752, residues 13-203: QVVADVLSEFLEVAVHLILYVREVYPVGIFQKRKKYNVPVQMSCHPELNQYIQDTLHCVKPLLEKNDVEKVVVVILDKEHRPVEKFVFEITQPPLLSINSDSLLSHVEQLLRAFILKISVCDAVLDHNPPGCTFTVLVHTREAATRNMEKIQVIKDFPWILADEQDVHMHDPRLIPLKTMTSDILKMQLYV

B1: EGFP-HASPIN (protein, UniProt Q9Z0R0 1-754)
chain: MAQAHPRSGTRLFRTYAARGVRGSQRQPGGLAEQWFQPPNLKRAFSSSLSDSNESPAVASDDPDDPDFPGSLVGQRRRRPRGSGSRNQRTLTNTPRVQRLRPRPPQKCSTPCSRLRPPPFPNCSPGCLGSDHSVCIQSRDSNELGTSASLFSSPASPGAPDPLYADSAVPGSFHLPAASLSEPSVPCPQVAATGDRYTGRALRAEASFRSSLFSLVNSGATEENKFGTDGENVKESCCERRQQMGNRLTDPDLTSPGKRKAACKKVVSQGVDQRDYEESSACKDLRVPGEISRPKRTGPLRKRKQQEATGTPPRHYHQSKKKRKASVSLWNLNTSQRDSWTKTRASFGFHKKKIITSVIEVCSSVASSSSRSLLSECSTPPIKNRAHLTVSSRCSSVYLLSPLKTLHVTDQRPSYAEKVYGECNQEGPIPFSDCLSTEKLERCEKIGEGVFGEVFQIINDQAPVALKIIAIEGLDLVNGSHQKTFEEILPEIIISKELSLLSSEAYNRTEGFIGLNSVHCVQGLYPPLLLKAWDHYNTTKRSANDRPDFFQEDQLFIILEFEFGGVDLERMKTKLSSVATAKSILHQITASLAVAEASLHFEHRDLHWGNVLLKKTNLKELRYTLNGKTSTIPTHGLQVNIIDYTLSRLERDGIVVFCDISAEEDLFTGEGDYQFEIYRLMRKENKNCWGEYHPYNNVLWLHYLTDKILNKMKFKTKCQSAAMKQIRKNLQHFHRTVLSFSSATDLLCQHSLFR
B2: C1qbp/HABP1, two-hybrid clone (whole) (protein, UniProt O35658 1-278)
chain: MLPLLRCVPRSLGAASGLRTAIPAQPLRHLLQPAPRPCLRPFGLLSVRAGSARRSGLLQPPVPCACGCGALHTEGDKAFVEFLTDEIKEEKKIQKHKSLPKMSGDWELEVNGTEAKLLRKVAGEKITVTFNINNSIPPTFDGEEEPSQGQKAEEQEPERTSTPNFVVEVTKTDGKKTLVLDCHYPEDEIGHEDEAESDIFSIKEVSFQATGDSEWRDTNYTLNTDSLDWALYDHLMDFLADRGVDNTFADELVELSTALEHQEYITFLEDLKSFVKNQ

Legend:
[1] = target: T1, HASPIN, full length, GAL4 DNA-binding domain fusion (two-hybrid bait) (mouse) (UniProt Q9Z0R0); experiment: two-hybrid; Matchmaker two-hybrid system 2; GAL4 DNA-binding domain-HASPIN (pAS2-1) as bait in yeast Y190; mouse testis cDNA library in pACT2 as prey; 5 x 10^5 clones screened; positives Trp, Leu, His non-requiring and LacZ positive
T1 sequence: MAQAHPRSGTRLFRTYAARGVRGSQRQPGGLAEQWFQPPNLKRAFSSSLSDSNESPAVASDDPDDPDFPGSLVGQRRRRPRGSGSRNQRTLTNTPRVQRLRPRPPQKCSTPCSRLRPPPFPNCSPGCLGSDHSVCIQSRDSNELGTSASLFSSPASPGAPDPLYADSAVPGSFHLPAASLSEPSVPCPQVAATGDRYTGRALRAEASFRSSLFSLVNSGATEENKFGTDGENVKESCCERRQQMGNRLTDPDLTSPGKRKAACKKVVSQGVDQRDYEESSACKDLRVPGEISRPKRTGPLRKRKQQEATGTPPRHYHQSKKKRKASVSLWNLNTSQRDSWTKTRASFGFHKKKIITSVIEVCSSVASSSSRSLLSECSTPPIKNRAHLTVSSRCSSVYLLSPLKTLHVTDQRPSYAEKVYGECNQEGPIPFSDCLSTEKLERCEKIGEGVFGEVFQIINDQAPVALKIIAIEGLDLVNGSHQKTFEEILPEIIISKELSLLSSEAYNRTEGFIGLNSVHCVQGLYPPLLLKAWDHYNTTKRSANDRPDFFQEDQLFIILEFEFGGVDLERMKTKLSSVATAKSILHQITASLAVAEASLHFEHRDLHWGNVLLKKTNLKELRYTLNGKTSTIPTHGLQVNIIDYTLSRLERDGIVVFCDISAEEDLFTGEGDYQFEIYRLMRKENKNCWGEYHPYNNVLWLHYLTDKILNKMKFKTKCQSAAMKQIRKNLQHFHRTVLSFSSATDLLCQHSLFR

RFP-CENPJ-FLAG (mouse) = RFP-CENPJ-FLAG (mouse) (UniProt Q569L8); experiment: co-IP; HEK 293 co-transfected with Egfp-Haspin and a FLAG-tagged partner, 48 h; RIPA lysate; immunoprecipitation with anti-HASPIN serum, anti-FLAG antibody or rabbit serum on Protein A Sepharose; western blot
C1QBP-FLAG (mouse) = target: T2, C1QBP-FLAG (mouse) (UniProt O35658); experiment: as above
T2 sequence: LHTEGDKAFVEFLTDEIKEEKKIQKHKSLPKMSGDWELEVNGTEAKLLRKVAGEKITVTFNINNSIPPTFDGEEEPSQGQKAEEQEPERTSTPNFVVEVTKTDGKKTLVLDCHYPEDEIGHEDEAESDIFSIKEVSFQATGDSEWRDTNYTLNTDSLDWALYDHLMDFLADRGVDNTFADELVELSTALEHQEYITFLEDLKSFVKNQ

Molecule | binding [1] | binding (RFP-CENPJ-FLAG (mouse)) | binding (C1QBP-FLAG (mouse))
Mad2l2/MAD2 mitotic arrest deficient-like 2, two-hybrid clone with the HORMA domain (from UniProt Q9D752 13-203) (domain or fragment) | binds |  | 
Kpna6/importin alpha 6, two-hybrid clone (whole) (from UniProt O35345 1-536) | binds |  | 
B1 |  | binds | binds
B2 | binds |  | 
